From patent publication US8115197B2, “Organic semiconductor material, organic semiconductor thin film and organic semiconductor device” (Sony Corporation, priority 2005, dated 2012)

Experiment: organic field-effect transistor test product, channel forming region spin-coated from solution: mobility in the saturation region
Conditions: concentration 5 g/lit., room temperature; for mobility in the saturation region: spin coating of chloroform solution

CCCCc1c(C(=O)OC)c(C(=O)OC)c(CCCC)c2cc3c(CCCC)c4cc5c(CC)c(CC)c(CC)c(CC)c5cc4c(CCCC)c3cc12 [example 1, 2,3-bis methoxycarbonyl-1,4,6,13-tetrabutyl-8,9,10,11-tetraethyl pentacene]
mobility in the saturation region: 5.0×10^−5 to 1.2×10^−3 cm^2·V^−1·second^−1

CCCc1c(C(=O)OC)c(C(=O)OC)c(CCC)c2cc3c(CCC)c4cc5c(CC)c(CC)c(CC)c(CC)c5cc4c(CCC)c3cc12 [example 3, 2,3-bis methoxycarbonyl-8,9,10,11-tetra ethyl-1,4,6,13-tetra propyl pentacene]
mobility in the saturation region: 9.0×10^−6 cm^2·V^−1·second^−1

CCCCc1c(C(=O)OC)c(C(=O)OC)c(CCCC)c2cc3c(CCCC)c4cc5ccccc5cc4c(CCCC)c3cc12 [example 4, 2,3-bis methoxycarbonyl-1,4,6,13-tetrabuyl pentacene]
mobility in the saturation region: 9.0×10^−5 cm^2·V^−1·second^−1

CCCCc1cc(C#N)c(CCCC)c2cc3c(CCCC)c4cc5c(CC)c(CC)c(CC)c(CC)c5cc4c(CCCC)c3cc12 [example 5, 2-cyano-1,4,6,13-tetrabutyl-8,9,10,11-tetraethyl pentacene]
mobility in the saturation region: 1.7×10^−3 cm^2·V^−1·second^−1

CCCc1c(CCC)c(CCC)c2cc3c(CCC)c4ccccc4c(CCC)c3cc2c1CCC [example 6]
mobility in the saturated region (spin coating of mesitylene solution): 0.01 cm^2 V^−1 second^−1

CCCc1c(C(=O)OC)c(C(=O)OC)c(CCC)c2cc3c(CCC)c4ccccc4c(CCC)c3cc12 [example 7]
mobility in the saturated region (spin coating of toluene solution): 2.0×10^−5 cm^2 V^−1 second^−1
